Test results as given in article PMC12603192.
Where a chain is given by its changes, count along the chain named. No constants are given. Whether binding was seen depends on the method and setting. In cells and extracts the contact can be indirect. Some results given as binding are weak or reduced against the parent protein; the word gives no strength. For part of these data: Sequences can lack the tags named with a protein. Blank lines part the entries; values can stand above or below the binder they belong to.

Amino acid sequences for entries named in this document (tags omitted).
UniProt Q15796: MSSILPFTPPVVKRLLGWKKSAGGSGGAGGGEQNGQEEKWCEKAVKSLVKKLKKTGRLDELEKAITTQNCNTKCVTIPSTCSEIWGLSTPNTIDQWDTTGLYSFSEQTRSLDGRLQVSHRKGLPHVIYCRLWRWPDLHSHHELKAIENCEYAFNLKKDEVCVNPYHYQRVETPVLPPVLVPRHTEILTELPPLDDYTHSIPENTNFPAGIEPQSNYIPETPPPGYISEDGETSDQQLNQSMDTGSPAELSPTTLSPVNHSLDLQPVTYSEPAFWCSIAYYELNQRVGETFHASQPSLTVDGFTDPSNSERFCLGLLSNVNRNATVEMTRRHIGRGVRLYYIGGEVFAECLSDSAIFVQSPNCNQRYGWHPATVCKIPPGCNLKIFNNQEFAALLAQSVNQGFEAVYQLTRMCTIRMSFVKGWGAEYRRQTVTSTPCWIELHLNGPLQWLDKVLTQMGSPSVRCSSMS

Legend:
ALK5-VN173 (human) = target: T1, ALK5-VN173 (human) (UniProt P36897); test: split reporter; BiFC: HeLa cells transfected with MARCH2-VC155 and ALK5-VN173, fixed after 24 h, confocal microscopy
T1 sequence: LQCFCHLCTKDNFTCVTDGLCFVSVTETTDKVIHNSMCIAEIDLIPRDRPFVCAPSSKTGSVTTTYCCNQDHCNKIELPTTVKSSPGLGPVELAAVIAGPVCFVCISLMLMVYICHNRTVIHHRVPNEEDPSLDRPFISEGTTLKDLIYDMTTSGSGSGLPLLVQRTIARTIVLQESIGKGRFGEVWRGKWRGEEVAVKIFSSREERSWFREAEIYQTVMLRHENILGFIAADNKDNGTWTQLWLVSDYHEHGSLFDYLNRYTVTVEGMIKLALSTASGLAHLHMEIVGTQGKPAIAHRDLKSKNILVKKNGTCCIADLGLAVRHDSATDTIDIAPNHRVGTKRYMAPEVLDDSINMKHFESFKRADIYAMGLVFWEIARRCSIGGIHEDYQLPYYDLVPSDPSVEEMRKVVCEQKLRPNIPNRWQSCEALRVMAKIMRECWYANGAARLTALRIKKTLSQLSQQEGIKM

HA-ALK5 (human) = target: T2, HA-ALK5 (human) (UniProt P36897); test: co-IP; tagged proteins co-expressed (HEK293T for Fig. 2B); lysis in 1% NP-40, 20 mM Tris-HCl pH 7.6, 150 mM NaCl, 2 mM EDTA; magnetic beads overnight at 4 °C, five washes; immunoblot
T2 sequence: T1 sequence

[1] = target: T3, endogenous ALK5 (human (endogenous in A549)), P36897; test: proximity ligation; PLA of ALK5 with SMAD2/3 in mock- or MARCH2-depleted cells upon TGF-β treatment (Fig. S4C); conditions: remark: other sources report otherwise
T3 chain: T1 sequence

FLAG-MARCH2 (human) = target: T4, FLAG-MARCH2 (human) (UniProt Q9P0N8); test: co-IP; tagged proteins co-expressed (HEK293T for Fig. 2B); lysis in 1% NP-40, 20 mM Tris-HCl pH 7.6, 150 mM NaCl, 2 mM EDTA; magnetic beads overnight at 4 °C, five washes; immunoblot
T4 sequence: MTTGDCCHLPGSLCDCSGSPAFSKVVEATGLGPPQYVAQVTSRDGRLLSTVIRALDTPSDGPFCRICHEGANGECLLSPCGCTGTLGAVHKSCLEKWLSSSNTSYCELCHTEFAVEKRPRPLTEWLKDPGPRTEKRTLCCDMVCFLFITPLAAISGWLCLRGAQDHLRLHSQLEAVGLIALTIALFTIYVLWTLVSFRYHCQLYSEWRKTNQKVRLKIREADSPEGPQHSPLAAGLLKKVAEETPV

[2] = target: T5, HA-MARCH2 stably expressed in A549 cells (human) (UniProt Q9P0N8); test: co-IP; as a5, but cells not treated with TGF-β
T5 sequence: T4 sequence

[3] = target: T5, HA-MARCH2 stably expressed in A549 cells (human); test: co-IP; endosomes isolated through FLAG-Rab5 on anti-FLAG magnetic agarose from A549 cells stably expressing FLAG-Rab5 and HA-MARCH2, eluted with 1% Triton X-100 lysis buffer, then co-IP of HA-MARCH2; blot with anti-ALK5; with or without TGF-β
[4] = target: T5, HA-MARCH2 stably expressed in A549 cells (human); test: co-IP; A549 cells stably expressing HA-MARCH2, treated with TGF-β for increasing times (peak at one hour); also after pre-treatment with Dynasore (80 μM) and Pitstop 2 (30 μM); HA-MARCH2 precipitated, blot with anti-ALK5
GST-SMAD2 = GST-SMAD2 (UniProt Q15796); test: pull-down; in vitro binding assay: lysates of HEK293 cells expressing FLAG-ALK5 or FLAG-ALK5 7KR incubated with GST-SMAD2; immunoblot; only the target purified
[5] = target: T5, HA-MARCH2 stably expressed in A549 cells (human); test: proximity ligation; Duolink PLA in A549 cells stably expressing HA-MARCH2 and FLAG-ALK5, TGF-β for 1 h, with or without Dynasore (80 μM) and Pitstop 2 (30 μM); also in cells expressing GFP-Rab5
MYC-MARCH2 (human) = target: T6, MYC-MARCH2 (human) (UniProt Q9P0N8); test: co-IP; tagged proteins co-expressed (HEK293T for Fig. 2B); lysis in 1% NP-40, 20 mM Tris-HCl pH 7.6, 150 mM NaCl, 2 mM EDTA; magnetic beads overnight at 4 °C, five washes; immunoblot
T6 sequence: T4 sequence

HA-MARCH2 (human) = target: T7, HA-MARCH2 (human) (UniProt Q9P0N8); test: as above
T7 sequence: T4 sequence

- binding (ALK5-VN173 (human)): binds
B1: MARCH2-VC155 (enzyme, UniProt Q9P0N8 1-246)
chain: T4 sequence

- binding (HA-ALK5 (human)): binds
B2: FLAG-MARCH2 (enzyme, UniProt Q9P0N8 1-246)
chain: T4 sequence

- binding [1]: binds
B3: SMAD3, P84022 1-425 (protein)
chain: MSSILPFTPPIVKRLLGWKKGEQNGQEEKWCEKAVKSLVKKLKKTGQLDELEKAITTQNVNTKCITIPRSLDGRLQVSHRKGLPHVIYCRLWRWPDLHSHHELRAMELCEFAFNMKKDEVCVNPYHYQRVETPVLPPVLVPRHTEIPAEFPPLDDYSHSIPENTNFPAGIEPQSNIPETPPPGYLSEDGETSDHQMNHSMDAGSPNLSPNPMSPAHNNLDLQPVTYCEPAFWCSISYYELNQRVGETFHASQPSMTVDGFTDPSNSERFCLGLLSNVNRNAAVELTRRHIGRGVRLYYIGGEVFAECLSDSAIFVQSPNCNQRYGWHPATVCKIPPGCNLKIFNNQEFAALLAQSVNQGFEAVYQLTRMCTIRMSFVKGWGAEYRRQTVTSTPCWIELHLNGPLQWLDKVLTQMGSPSIRCSSVS

- binding (FLAG-MARCH2 (human)): binds
B4: HA-ALK5 (receptor, UniProt P36897 34-503)
chain: T1 sequence

- binding [3]: binds
- binding [4]: binds
B5: endogenous ALK5 (receptor, UniProt P36897 34-503)
chain: T1 sequence
- binding [2]: no binding (condition: cells without TGF-β treatment)

- binding (GST-SMAD2): binds
B6: FLAG-ALK5 7KR (receptor, UniProt P36897 34-503)
chain: T1 sequence with K180R, K309R, K310R, K358R, K416R, K456R, K457R

- binding [5]: binds
B7: FLAG-ALK5 stably expressed in A549 cells (receptor, UniProt P36897 34-503)
chain: T1 sequence

- binding (GST-SMAD2): binds
- binding (MYC-MARCH2 (human)): binds
- binding (HA-MARCH2 (human)): binds
B8: FLAG-ALK5 (receptor, UniProt P36897 34-503)
chain: T1 sequence
